Data: PubChem BioAssay AID250 (DTP/NCI, 2004)
The list does not hold the whole screen: it is rich in T/C values a quarter to a half above the control, in often repeated tests (any T/C) and in doses without a T/C. Further doses and runs are listed elsewhere. T/C gives the treated animals as a percentage of the vehicle group. Some entries give survivors of the animals treated and no T/C: the source holds a T/C of zero for them, seemingly a mark for toxic or unscored doses. Some doses without a T/C left all or most animals alive at the check, yet need not have been tolerated: survival well below the control is almost never listed, so the zero probably covers shortened survival too. For some of these results: Counts of survivors are from the toxicity check (mostly the fifth day) where no day follows; animals may have died later. Schedule codes are those of the source, taken here to give the interval after Q, in days (D) or hours (H), and the number of doses after X. For some of these results: For survival time, this PubChem deposit counts one and a half times the control or more as active, and values a quarter to a half above the control carry no call in these data; other NCI protocols may use other cut-offs. Some schedules carry Z or #; the key to these is not given. Some T/C values carry the count of animals alive at the toxicity check (mostly the fifth day); without a count, all were alive then.

How the values were obtained:
[1] = test system: BDF1 mice, L1210 leukemia sc, survival T/C; assay: NCI In Vivo Anticancer Drug Screen. Data for tumor model L1210 Leukemia (subcutaneous) in B6D2F1 (BDF1) mice; conditions: T/C endpoint: median survival time, higher T/C = longer survival
Summary of the method: (§1)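 Read-out: T/C ratio, i.e. survival or tumor size in treated mice over that in vehicle-treated controls, from mice bearing transplantable tumors.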

[2] = test system: BDF1 mice, L1210 leukemia sc; assay: as above; conditions: higher T/C = longer survival
Summary of the method: as §1

In the case of C=CCNC(=O)NCC=C, the survivor count ([1]; dose: 400.0 mg/kg/injection, schedule: Q01DX001 (ip), vehicle: saline) is reported as 5 of 8, the survivor count ([1]; dose: 400.0 mg/kg/injection, schedule: Q01DX001 (sc), vehicle: saline) is reported as 5 of 8 and the survivor count ([1]; dose: 400.0 mg/kg/injection, schedule: Q01DX009 (ip), vehicle: saline) is reported as 1 of 8. The survivor count ([1]; dose: 400.0 mg/kg/injection, schedule: Q01DX009 (sc), vehicle: saline) was 0 of 8, the survivor count ([1]; dose: 400.0 mg/kg/injection, schedule: Q04DX003 (ip), vehicle: saline) was 4 of 8 and the survivor count ([1]; dose: 400.0 mg/kg/injection, schedule: Q04DX003 (sc), vehicle: saline) was 4 of 8. The survivor count ([1]; dose: 800.0 mg/kg/injection, schedule: Q01DX001 (ip), vehicle: saline) was 0 of 8, the survivor count ([1]; dose: 800.0 mg/kg/injection, schedule: Q01DX001 (sc), vehicle: saline) was 0 of 8 and the survivor count ([1]; dose: 800.0 mg/kg/injection, schedule: Q04DX003 (ip), vehicle: saline) was 0 of 8. The survivor count ([1]; dose: 800.0 mg/kg/injection, schedule: Q04DX003 (sc), vehicle: saline) was 3 of 8, the T/C ([2]; T/C endpoint: median survival time, dose: 12.5 mg/kg/injection, schedule: Q01DX009 (ip), vehicle: saline) was 127 % of control and the T/C ([2]; T/C endpoint: median survival time, dose: 12.5 mg/kg/injection, schedule: Q01DX009 (sc), vehicle: saline) was 127 % of control. For the same compound, the T/C ([2]; T/C endpoint: median survival time, dose: 25.0 mg/kg/injection, schedule: Q01DX009 (ip), vehicle: saline) was 133 % of control, the T/C ([2]; T/C endpoint: median survival time, dose: 25.0 mg/kg/injection, schedule: Q01DX009 (sc), vehicle: saline) was 127 % of control and the T/C ([2]; T/C endpoint: median survival time, dose: 50.0 mg/kg/injection, schedule: Q01DX009 (ip), vehicle: saline) was 133 % of control. For the same compound, the T/C ([2]; T/C endpoint: median survival time, dose: 50.0 mg/kg/injection, schedule: Q01DX009 (sc), vehicle: saline) was 138 % of control, the T/C ([2]; T/C endpoint: median survival time, dose: 100.0 mg/kg/injection, schedule: Q01DX009 (ip), vehicle: saline) was 144 % of control and the T/C ([2]; T/C endpoint: median survival time, dose: 100.0 mg/kg/injection, schedule: Q01DX009 (sc), vehicle: saline) was 144 % of control. For the same compound, the T/C ([2]; T/C endpoint: median survival time, dose: 200.0 mg/kg/injection, schedule: Q01DX009 (sc), vehicle: saline) was 144 % of control and the T/C ([2]; T/C endpoint: median survival time, dose: 200.0 mg/kg/injection, schedule: Q04DX003 (sc), vehicle: saline) was 127 % of control [7 of 8 alive].

With COc1cccc2c1C(=O)c1c(O)c3c(c(O)c1C2=O)C[C@@](O)(C(C)=O)C[C@@H]3OC1CC(N)C(O)C(C)O1 (some centres undefined) the survivor count ([1]; dose: 8.0 mg/kg/injection, schedule: Q04DX003 (ip), vehicle: saline) was 10 of 10, the survivor count ([1]; dose: 16.0 mg/kg/injection, schedule: Q04DX003 (ip), vehicle: saline) was 10 of 10 and the T/C ([2]; T/C endpoint: median survival time, dose: 8.4 mg/kg/injection, schedule: Q01DX Z (sc), vehicle: saline) was 140 % of control. The T/C ([2]; T/C endpoint: median survival time, dose: 8.4 mg/kg/injection, schedule: Q01DX Z (sc), vehicle: water) was 133 % of control, the T/C ([2]; T/C endpoint: median survival time, dose: 8.6 mg/kg/injection, schedule: Q01DX Z (sc), vehicle: saline) was 140 % of control and the T/C ([2]; T/C endpoint: median survival time, dose: 14.0 mg/kg/injection, schedule: Q01DX Z (sc), vehicle: saline) was 130 % of control. The T/C ([2]; T/C endpoint: median survival time, dose: 14.4 mg/kg/injection, schedule: Q01DX Z (sc), vehicle: saline) was 130 % of control, the T/C ([2]; T/C endpoint: median survival time, dose: 18.0 mg/kg/injection, schedule: Q04DX003 (sc), vehicle: water, evaluated on day 5) was 135 % of control and the T/C ([2]; T/C endpoint: median survival time, dose: 18.0 mg/kg/injection, schedule: Q04DX003 (sc), vehicle: water, evaluated on day 45) was 138 % of control.

With CC[n+]1ccc(Nc2ccc(NC(=O)c3ccc(Nc4cc[n+](CC)c5ccc(N)cc45)cc3)cc2)cc1 the survivor count ([1]; dose: 16.0 mg/kg/injection, schedule: Q01DX009 (ip), vehicle: water) was 0 of 8, the survivor count ([1]; dose: 16.0 mg/kg/injection, schedule: Q03HX008 (sc), vehicle: water) was 1 of 8 and the survivor count ([1]; dose: 32.0 mg/kg/injection, schedule: Q01DX001 (sc), vehicle: water) was 5 of 8. The T/C ([2]; T/C endpoint: median survival time, dose: 2.0 mg/kg/injection, schedule: Q01DX009 (sc), vehicle: water) was 145 % of control, the T/C ([2]; T/C endpoint: median survival time, dose: 4.0 mg/kg/injection, schedule: Q03HX008 (sc), vehicle: water) was 130 % of control and the T/C ([2]; T/C endpoint: median survival time, dose: 4.0 mg/kg/injection, schedule: Q03HX024 (ip), vehicle: water) was 133 % of control. The T/C ([2]; T/C endpoint: median survival time, dose: 8.0 mg/kg/injection, schedule: Q03HX024 (sc), vehicle: water) was 140 % of control, the T/C ([2]; T/C endpoint: median survival time, dose: 8.0 mg/kg/injection, schedule: Q04DX003 (sc), vehicle: water) was 125 % of control and the T/C ([2]; T/C endpoint: median survival time, dose: 16.0 mg/kg/injection, schedule: Q01DX001 (sc), vehicle: water) was 130 % of control. The T/C ([2]; T/C endpoint: median survival time, dose: 32.0 mg/kg/injection, schedule: Q04DX003 (sc), vehicle: water) was 140 % of control [7 of 8 alive].

In the case of COC(=O)Nc1nc2ccc(C(=O)c3cccs3)cc2[nH]1, the T/C ([2]; T/C endpoint: median survival time, dose: 50.0 mg/kg/injection, schedule: Q04DX003 (iv), vehicle: other) is reported as 127 % of control [6 of 7 alive], the T/C ([2]; T/C endpoint: median survival time, dose: 70.0 mg/kg/injection, schedule: Q04DX003 (ip), vehicle: other) is reported as 128 % of control and the T/C ([2]; T/C endpoint: median survival time, dose: 100.0 mg/kg/injection, schedule: Q04DX003 (ip), vehicle: other) is reported as 130 % of control.

With NC(=O)N(CCCl)N=O the T/C ([2]; T/C endpoint: median survival time, dose: 3.0 mg/kg/injection, schedule: Q07DX Z (sc), vehicle: saline) was 126 % of control, the T/C ([2]; T/C endpoint: median survival time, dose: 23.0 mg/kg/injection, schedule: Q01DX001 (sc), vehicle: saline) was 126 % of control and the T/C ([2]; T/C endpoint: median survival time, dose: 39.0 mg/kg/injection, schedule: Q01DX001 (sc), vehicle: saline) was 126 % of control.

For O=c1cnn(C2OC(CO)C(O)C2O)c(=O)[nH]1 (centres undefined), the T/C ([2]; T/C endpoint: median survival time, dose: 75.0 mg/kg/injection, schedule: Q01DX009 (sc), vehicle: water) was 125 % of control, the T/C ([2]; T/C endpoint: median survival time, dose: 250.0 mg/kg/injection, schedule: Q01DX Z (sc), vehicle: other) was 127 % of control and the T/C ([2]; T/C endpoint: median survival time, dose: 500.0 mg/kg/injection, schedule: Q01DX Z (sc), vehicle: other) was 133 % of control. The T/C ([2]; T/C endpoint: median survival time, dose: 600.0 mg/kg/injection, schedule: Q01DX009 (ip), vehicle: water) was 128 % of control and the T/C ([2]; T/C endpoint: median survival time, dose: 600.0 mg/kg/injection, schedule: Q01DX009 (sc), vehicle: water) was 126 % of control.

For Cc1c2ccncc2c(C)c2c1[nH]c1ccccc12, the T/C ([2]; T/C endpoint: median survival time, dose: 20.0 mg/kg/injection, schedule: Q03HX008 (ip), vehicle: steroid suspending solution) was 127 % of control and the T/C ([2]; T/C endpoint: median survival time, dose: 40.0 mg/kg/injection, schedule: Q03HX008 (sc), vehicle: steroid suspending solution) was 133 % of control [7 of 8 alive].

In the case of CCCCC(=O)N(c1ccc(Nc2c3ccccc3nc3cc([N+](=O)[O-])ccc23)cc1)S(C)(=O)=O, the T/C ([2]; T/C endpoint: mean survival time, dose: 12.5 mg/kg/injection, schedule: Q01DX009 (sc), vehicle: saline) is reported as 128 % of control.

For CCCOC1=C(N2CC2)C(=O)C(OCCC)=C(N2CC2)C1=O, the T/C ([2]; T/C endpoint: median survival time, dose: 23.0 mg/kg/injection, schedule: Q01DX Z (sc), vehicle: saline) was 125 % of control, the T/C ([2]; T/C endpoint: median survival time, dose: 39.0 mg/kg/injection, schedule: Q01DX Z (sc), vehicle: saline) was 135 % of control and the T/C ([2]; T/C endpoint: median survival time, dose: 65.0 mg/kg/injection, schedule: Q01DX Z (sc), vehicle: saline) was 130 % of control.

O=NN(CCCl)C(=O)NC1CC2CCC1C2 (centres undefined) was tested, and the T/C ([2]; T/C endpoint: median survival time, dose: 180.0 mg/kg/injection, schedule: Q01DX Z (oral), vehicle: carboxymethylcellulose (CMC)) was 142 % of control.

N[C@H](C(=O)O)[C@H]1ON=C(Cl)[C@@H]1O was tested, and the T/C ([2]; T/C endpoint: median survival time, dose: 16.0 mg/kg/injection, schedule: Q01DX009 (sc), vehicle: saline, evaluated on day 21) was 125 % of control and the T/C ([2]; T/C endpoint: median survival time, dose: 16.0 mg/kg/injection, schedule: Q01DX009 (sc), vehicle: saline, evaluated on day 30) was 142 % of control.

For Nc1nc(=S)c2ncn(C3OC(COC(=O)c4ccccc4)C(OC(=O)c4ccccc4)C3OC(=O)c3ccccc3)c2[nH]1 (centres undefined), the T/C ([2]; T/C endpoint: median survival time, dose: 65.0 mg/kg/injection, schedule: Q01DX Z (sc), vehicle: methylcellulose (MC)) was 125 % of control and the T/C ([2]; T/C endpoint: median survival time, dose: 180.0 mg/kg/injection, schedule: Q01DX Z (sc), vehicle: methylcellulose (MC)) was 130 % of control.

With C1CN1c1nc(N2CC2)nc(N2CC2)n1 the T/C ([2]; T/C endpoint: median survival time, dose: 3.0 mg/kg/injection, schedule: Q01DX Z (sc), vehicle: saline) was 130 % of control.

In the case of CCCNc1ncnc2[nH]ncc12, the T/C ([2]; T/C endpoint: median survival time, dose: 23.3 mg/kg/injection, schedule: Q01DX Z (sc), vehicle: methylcellulose (MC)) is reported as 130 % of control and the T/C ([2]; T/C endpoint: median survival time, dose: 38.9 mg/kg/injection, schedule: Q01DX Z (sc), vehicle: methylcellulose (MC)) is reported as 140 % of control.
